According to the supplement of paper PMC10849652:
This is one part of the list. Residues, ends and D or L forms follow the SMILES beside them. *: point of attachment. Cbz = O=C(OCc1ccccc1)*

Amino acid sequences for entries named in this document (tags omitted). A change or cut given only in a name is not applied to a line headed by its entry.
UniProt Q96BI3, whole entry, looked up: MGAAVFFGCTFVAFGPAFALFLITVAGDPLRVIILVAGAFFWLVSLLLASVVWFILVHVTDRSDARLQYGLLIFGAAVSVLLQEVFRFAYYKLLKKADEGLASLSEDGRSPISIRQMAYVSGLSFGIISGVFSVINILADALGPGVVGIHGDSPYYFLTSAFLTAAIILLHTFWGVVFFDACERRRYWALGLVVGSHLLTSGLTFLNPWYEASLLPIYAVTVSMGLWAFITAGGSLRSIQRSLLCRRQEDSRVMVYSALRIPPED
UniProt Q99767, whole entry, looked up: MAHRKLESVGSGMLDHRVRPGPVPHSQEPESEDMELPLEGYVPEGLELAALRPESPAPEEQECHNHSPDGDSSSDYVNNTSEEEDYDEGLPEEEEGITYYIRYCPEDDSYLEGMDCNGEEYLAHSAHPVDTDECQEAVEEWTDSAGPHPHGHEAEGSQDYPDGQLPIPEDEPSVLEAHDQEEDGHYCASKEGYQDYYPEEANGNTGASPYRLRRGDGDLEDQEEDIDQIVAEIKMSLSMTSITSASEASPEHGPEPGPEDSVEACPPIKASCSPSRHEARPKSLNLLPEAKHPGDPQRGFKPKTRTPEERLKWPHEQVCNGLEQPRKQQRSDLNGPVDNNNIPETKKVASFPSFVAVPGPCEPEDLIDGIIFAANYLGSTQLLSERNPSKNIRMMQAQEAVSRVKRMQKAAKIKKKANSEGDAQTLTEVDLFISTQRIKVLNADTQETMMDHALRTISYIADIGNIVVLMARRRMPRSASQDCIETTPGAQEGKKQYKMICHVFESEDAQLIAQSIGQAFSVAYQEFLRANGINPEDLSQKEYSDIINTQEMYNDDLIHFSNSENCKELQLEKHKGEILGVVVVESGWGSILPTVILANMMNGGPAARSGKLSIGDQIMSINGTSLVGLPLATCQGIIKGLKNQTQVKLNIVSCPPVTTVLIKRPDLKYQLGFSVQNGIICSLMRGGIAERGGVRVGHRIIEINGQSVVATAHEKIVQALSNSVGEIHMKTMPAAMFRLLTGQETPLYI
UniProt Q86XL3: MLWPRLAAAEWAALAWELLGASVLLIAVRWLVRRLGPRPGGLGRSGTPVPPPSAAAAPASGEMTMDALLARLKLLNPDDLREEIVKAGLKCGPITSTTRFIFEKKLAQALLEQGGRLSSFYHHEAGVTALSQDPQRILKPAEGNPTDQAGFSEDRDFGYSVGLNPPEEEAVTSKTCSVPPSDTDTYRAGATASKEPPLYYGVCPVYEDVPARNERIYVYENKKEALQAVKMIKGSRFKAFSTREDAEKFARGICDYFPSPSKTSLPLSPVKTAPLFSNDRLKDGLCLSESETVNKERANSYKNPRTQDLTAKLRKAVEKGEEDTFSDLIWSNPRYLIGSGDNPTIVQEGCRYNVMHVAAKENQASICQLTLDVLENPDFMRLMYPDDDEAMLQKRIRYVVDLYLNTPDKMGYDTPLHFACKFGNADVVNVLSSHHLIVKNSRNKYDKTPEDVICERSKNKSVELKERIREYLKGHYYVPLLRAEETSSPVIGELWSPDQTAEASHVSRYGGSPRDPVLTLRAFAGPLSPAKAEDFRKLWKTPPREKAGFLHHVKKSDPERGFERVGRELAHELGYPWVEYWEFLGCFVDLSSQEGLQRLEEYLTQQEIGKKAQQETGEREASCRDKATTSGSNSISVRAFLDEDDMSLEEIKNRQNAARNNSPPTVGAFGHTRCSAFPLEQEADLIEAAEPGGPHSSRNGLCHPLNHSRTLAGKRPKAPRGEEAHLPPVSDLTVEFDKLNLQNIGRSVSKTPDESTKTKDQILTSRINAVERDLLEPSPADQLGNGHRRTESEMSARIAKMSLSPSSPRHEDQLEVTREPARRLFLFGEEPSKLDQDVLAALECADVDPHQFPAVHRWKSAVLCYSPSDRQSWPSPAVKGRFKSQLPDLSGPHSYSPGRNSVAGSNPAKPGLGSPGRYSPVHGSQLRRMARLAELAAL
UniProt Q86W74: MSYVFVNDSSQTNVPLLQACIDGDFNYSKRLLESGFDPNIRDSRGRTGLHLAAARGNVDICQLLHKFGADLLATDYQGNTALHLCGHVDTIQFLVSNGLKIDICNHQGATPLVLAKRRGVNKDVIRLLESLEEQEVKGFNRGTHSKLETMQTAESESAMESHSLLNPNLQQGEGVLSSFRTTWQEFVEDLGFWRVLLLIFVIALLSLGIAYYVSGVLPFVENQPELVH
UniProt P06727: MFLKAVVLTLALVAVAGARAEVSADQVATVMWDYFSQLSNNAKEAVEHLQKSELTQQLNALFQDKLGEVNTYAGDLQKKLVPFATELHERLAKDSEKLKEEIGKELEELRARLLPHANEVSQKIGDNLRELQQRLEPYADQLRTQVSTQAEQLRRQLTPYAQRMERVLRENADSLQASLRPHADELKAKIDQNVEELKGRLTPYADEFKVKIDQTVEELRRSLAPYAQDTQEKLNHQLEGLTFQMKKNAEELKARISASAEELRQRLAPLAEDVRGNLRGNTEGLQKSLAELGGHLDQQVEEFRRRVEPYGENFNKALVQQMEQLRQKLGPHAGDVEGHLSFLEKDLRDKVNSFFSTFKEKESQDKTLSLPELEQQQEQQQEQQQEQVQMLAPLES
UniProt Q8NFD5, whole entry, looked up: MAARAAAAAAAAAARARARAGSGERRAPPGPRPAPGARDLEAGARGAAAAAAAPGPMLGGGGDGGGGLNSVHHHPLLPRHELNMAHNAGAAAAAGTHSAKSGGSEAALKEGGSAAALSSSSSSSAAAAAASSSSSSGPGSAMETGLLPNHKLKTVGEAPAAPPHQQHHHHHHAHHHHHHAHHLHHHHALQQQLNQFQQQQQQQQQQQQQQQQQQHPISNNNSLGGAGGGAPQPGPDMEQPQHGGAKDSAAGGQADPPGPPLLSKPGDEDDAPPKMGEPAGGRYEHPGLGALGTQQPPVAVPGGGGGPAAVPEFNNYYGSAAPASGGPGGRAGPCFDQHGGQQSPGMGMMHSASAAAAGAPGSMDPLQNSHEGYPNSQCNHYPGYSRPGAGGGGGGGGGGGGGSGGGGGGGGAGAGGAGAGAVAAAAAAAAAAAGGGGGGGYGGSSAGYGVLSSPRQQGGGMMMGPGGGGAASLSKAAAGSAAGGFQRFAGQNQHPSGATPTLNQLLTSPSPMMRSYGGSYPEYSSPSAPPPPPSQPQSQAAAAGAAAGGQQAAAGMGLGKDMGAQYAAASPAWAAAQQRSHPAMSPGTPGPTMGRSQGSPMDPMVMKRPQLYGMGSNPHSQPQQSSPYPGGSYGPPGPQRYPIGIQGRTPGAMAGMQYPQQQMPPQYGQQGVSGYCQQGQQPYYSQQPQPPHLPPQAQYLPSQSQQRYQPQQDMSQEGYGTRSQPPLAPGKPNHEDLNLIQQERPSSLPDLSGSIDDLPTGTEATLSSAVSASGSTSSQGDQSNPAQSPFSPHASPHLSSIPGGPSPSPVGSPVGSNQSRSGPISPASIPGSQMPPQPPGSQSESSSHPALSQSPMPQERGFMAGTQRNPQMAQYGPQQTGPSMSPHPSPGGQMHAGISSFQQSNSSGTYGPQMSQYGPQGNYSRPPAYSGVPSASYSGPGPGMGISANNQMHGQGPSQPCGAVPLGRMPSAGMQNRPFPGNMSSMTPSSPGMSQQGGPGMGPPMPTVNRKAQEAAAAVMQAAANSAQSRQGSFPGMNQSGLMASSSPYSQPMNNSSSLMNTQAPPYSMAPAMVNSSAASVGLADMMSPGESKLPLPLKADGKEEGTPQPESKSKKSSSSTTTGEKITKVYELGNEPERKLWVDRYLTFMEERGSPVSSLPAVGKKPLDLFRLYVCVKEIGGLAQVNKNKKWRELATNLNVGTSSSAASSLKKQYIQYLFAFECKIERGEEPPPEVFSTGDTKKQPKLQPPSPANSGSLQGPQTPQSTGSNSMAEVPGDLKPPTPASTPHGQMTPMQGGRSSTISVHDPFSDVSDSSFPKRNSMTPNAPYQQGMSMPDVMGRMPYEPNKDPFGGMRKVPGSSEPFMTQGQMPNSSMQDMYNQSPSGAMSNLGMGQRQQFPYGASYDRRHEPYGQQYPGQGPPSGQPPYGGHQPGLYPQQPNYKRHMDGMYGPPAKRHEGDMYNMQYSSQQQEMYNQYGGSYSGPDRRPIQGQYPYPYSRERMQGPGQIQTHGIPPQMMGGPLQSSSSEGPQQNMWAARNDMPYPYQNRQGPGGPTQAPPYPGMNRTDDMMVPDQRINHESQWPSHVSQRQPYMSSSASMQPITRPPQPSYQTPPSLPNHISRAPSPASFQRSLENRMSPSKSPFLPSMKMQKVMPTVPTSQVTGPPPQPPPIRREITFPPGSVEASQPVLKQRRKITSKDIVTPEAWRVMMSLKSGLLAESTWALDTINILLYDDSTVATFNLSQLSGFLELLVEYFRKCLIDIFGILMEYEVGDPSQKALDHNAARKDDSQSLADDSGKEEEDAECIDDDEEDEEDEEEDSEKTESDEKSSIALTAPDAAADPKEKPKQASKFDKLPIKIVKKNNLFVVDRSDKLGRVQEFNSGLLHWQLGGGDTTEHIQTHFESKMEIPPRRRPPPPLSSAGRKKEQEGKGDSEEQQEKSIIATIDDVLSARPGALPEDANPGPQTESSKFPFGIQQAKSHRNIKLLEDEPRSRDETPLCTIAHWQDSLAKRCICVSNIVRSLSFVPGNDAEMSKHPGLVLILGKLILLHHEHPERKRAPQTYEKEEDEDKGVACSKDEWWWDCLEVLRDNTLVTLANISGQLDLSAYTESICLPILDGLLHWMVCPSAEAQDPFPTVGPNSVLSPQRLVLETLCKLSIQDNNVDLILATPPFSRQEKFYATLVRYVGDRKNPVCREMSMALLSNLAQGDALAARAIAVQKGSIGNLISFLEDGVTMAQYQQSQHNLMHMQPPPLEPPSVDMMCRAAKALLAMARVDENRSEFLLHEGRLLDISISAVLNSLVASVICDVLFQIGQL
UniProt P05067, whole entry, looked up: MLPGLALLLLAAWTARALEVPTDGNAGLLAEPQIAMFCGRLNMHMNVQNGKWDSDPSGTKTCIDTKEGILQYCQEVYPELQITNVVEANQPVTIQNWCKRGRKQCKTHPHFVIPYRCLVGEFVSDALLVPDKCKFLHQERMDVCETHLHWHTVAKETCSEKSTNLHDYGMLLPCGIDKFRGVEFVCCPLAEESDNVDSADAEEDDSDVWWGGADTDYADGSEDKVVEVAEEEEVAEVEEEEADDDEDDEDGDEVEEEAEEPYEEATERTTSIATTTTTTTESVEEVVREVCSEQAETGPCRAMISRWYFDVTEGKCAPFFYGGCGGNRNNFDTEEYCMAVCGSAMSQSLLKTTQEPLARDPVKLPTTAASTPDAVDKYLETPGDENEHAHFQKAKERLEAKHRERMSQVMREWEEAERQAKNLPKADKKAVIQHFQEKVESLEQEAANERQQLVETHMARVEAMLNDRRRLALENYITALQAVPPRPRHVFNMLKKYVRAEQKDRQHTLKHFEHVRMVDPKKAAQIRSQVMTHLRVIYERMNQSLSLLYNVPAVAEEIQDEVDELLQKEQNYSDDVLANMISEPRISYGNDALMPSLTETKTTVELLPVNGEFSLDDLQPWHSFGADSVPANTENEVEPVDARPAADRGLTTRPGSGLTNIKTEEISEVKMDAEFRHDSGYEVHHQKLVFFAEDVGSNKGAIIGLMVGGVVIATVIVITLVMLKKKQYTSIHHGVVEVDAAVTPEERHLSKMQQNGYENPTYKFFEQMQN
UniProt Q6P6B7: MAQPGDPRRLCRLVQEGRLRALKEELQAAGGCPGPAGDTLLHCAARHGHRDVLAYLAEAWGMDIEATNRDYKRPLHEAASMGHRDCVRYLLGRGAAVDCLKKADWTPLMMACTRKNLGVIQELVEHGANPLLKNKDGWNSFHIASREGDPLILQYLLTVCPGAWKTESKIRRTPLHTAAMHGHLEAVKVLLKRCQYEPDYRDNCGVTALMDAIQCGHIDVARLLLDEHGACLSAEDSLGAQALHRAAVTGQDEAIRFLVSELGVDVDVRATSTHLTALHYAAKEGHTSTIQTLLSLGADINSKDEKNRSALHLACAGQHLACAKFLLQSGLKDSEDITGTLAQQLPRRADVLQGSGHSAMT
UniProt Q8N6S4: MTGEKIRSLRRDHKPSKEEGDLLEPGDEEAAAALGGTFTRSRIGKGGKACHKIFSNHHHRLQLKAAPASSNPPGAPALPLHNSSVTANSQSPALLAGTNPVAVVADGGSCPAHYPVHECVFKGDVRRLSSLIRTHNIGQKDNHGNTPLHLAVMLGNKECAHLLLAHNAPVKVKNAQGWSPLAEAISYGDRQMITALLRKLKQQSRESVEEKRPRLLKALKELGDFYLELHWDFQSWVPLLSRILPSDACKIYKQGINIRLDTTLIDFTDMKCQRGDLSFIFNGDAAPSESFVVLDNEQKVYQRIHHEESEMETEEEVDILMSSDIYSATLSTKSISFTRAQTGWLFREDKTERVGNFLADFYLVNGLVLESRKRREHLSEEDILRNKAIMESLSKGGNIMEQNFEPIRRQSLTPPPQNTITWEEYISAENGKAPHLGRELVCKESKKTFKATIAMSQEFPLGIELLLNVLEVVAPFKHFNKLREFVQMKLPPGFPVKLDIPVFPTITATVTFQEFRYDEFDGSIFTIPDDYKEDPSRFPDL

Tests used:
Test in all cases: log2 fold change, soluble protein after heating vs DMSO (PISA); higher = thermal stabilisation; K562 cells, 10 uM, 30 min; active = over 0.2 and 3.5 SD of the protein, either way, in both replicates (recomputed)
IRAK-1-4 Inhibitor I = compound: C1COCCN1CCN2C3=CC=CC=C3N=C2NC(=O)C4=CC(=CC=C4)[N+](=O)[O-] [IRAK-1-4 Inhibitor I]
Summary of the method: (§1)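 K562 cells at 2×10^6 cells/mL were treated for 30 min with 10 μM compound, and aliquots were heated for 3 min over 48°C-58°C before pooling. Extraction used PBS with 0.5% NP-40 at 4°C, and soluble protein was the supernatant after 21,000xg for 90 min, measured by TMTpro 16plex LC-MS/MS with channel sums equalised. Thermal stability values, relative to control samples and from duplicates, are log2 fold changes.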

ibrutinib = compound: C=CC(=O)N1CCC[C@@H](n2nc(-c3ccc(Oc4ccccc4)cc3)c3c(N)ncnc32)C1 [ibrutinib]
Summary of the method: as §1

[1] = compound: CC(=O)c1cnc2ccc(-c3cc(Cl)c(O)c(Cl)c3)nc2c1N[C@H]1CC[C@H](CN(C)C)CC1
Summary of the method: as §1

[2] = compound: CC(C)C1=C2N=C(C=C(N2N=C1)NCC3=CC=CC=C3)NCCCCCCN
Summary of the method: as §1

pinometostat = compound: CC(C)N(C[C@H]1O[C@@H](n2cnc3c(N)ncnc32)[C@H](O)[C@@H]1O)[C@H]1C[C@@H](CCc2nc3cc(C(C)(C)C)ccc3[nH]2)C1 [pinometostat]
Summary of the method: as §1

[3] = compound: CC1=C(C2=C(C=C1)C(=O)C3=CC=CC=C3N2CCCN)C
Summary of the method: as §1

ralimetinib = compound: CC(C)(C)Cn1c(N)nc2ccc(-c3[nH]c(C(C)(C)C)nc3-c3ccc(F)cc3)nc21 [ralimetinib]
Summary of the method: as §1

[4] = compound: CC(C)(O)CC(=O)NCCn1ccc2ncnc(Nc3ccc(Oc4cccc(C(F)(F)F)c4)c(Cl)c3)c21
Summary of the method: as §1

[5] = compound: CC(C)C[C@@H](C=O)NC(=O)[C@H](CC(C)C)NC(=O)[C@H](CC(C)C)NC(=O)OCc1ccccc1
Summary of the method: as §1

[6] = compound: CC1=C(C(CC(=O)N1)C2=CC=C(C=C2)C(F)(F)F)C(=O)NC3=C(C=C4C(=C3)C=NN4)F
Summary of the method: as §1

Measured: log2 fold change

APH1A (UniProt Q96BI3)
inactive: IRAK-1-4 Inhibitor I 0.021 | ibrutinib 0.036 | [1] -0.076 | [2] -0.047 | pinometostat -0.056 | [3] -0.03

AQR (UniProt O60306)
inactive: IRAK-1-4 Inhibitor I -0.006 | [1] -0.014 | ralimetinib 0.034 | [4] -0.026 | [2] -0.068 | [5] 0.045 | pinometostat -0.027 | [3] -0.014

ANLN (UniProt Q9NQW6)
inactive: IRAK-1-4 Inhibitor I 0.054 | ibrutinib 0.24 | ralimetinib 0.211 | [4] 0.038 | [2] -0.417 | [5] 0.034 | pinometostat 0.154 | [6] 0

ANKRD52 (UniProt Q8NB46)
inactive: IRAK-1-4 Inhibitor I -0.074 | [1] -0.026 | ralimetinib 0.064 | [4] -0.046 | [2] -0.056 | [5] 0.045 | pinometostat 0.055 | [6] -0.085 | [3] -0.122

ARFGEF1 (UniProt Q9Y6D6)
inactive: IRAK-1-4 Inhibitor I 0.016 | ibrutinib -0.061 | [1] 0.036 | ralimetinib 0.132 | [4] -0.018 | [2] 0.051 | [5] -0.019 | pinometostat 0.001 | [3] 0.07

AP1S2 (UniProt P56377)
inactive: IRAK-1-4 Inhibitor I 0 | ibrutinib -0.071 | [1] -0.013 | [4] -0.174 | pinometostat -0.026 | [6] 0.005

ANKS1A (UniProt Q92625)
inactive: IRAK-1-4 Inhibitor I -0.147 | ibrutinib -0.149 | [1] 0.112 | ralimetinib 0.288 | [4] -0.074 | [5] 0.153 | pinometostat 0.298 | [3] 0.239

APOB (UniProt P04114)
inactive: IRAK-1-4 Inhibitor I 0.042 | ibrutinib -0.012 | [1] 0.045 | ralimetinib -0.239 | [4] -0.295 | [2] -0.438 | [5] 0.403 | pinometostat -0.171 | [3] 0.021

ARHGAP6 (UniProt O43182)
inactive: IRAK-1-4 Inhibitor I -0.121 | [1] -0.039 | ralimetinib 0.145 | [4] 0.058 | [5] 0.188 | pinometostat 0.219 | [6] -0.105 | [3] -0.098

AP4S1 (UniProt Q9Y587)
inactive: IRAK-1-4 Inhibitor I -0.061 | ibrutinib -0.12 | [1] 0.008 | [4] -0.079 | [2] 0 | pinometostat -0.145

ARHGEF10 (UniProt O15013)
inactive: ibrutinib -0.107

APOL2 (UniProt J3KQL8)
inactive: ibrutinib 0.093 | [1] -0.005 | [4] -0.167 | [2] -0.304 | [6] -0.068 | [3] 0.017

AP5S1 (UniProt Q9NUS5)
inactive: [2] -0.162 | [6] -0.332

ARHGAP5 (UniProt Q13017)
inactive: ibrutinib 0.069 | ralimetinib 0.17 | [4] -0.056 | [2] 0.169 | [5] -0.075 | [3] -0.17

Copied from the entries so far (eight entries):
ANKRD52 (UniProt Q8NB46)
inactive: IRAK-1-4 Inhibitor I -0.074 | [1] -0.026 | ralimetinib 0.064 | [4] -0.046 | [2] -0.056 | [5] 0.045 | pinometostat 0.055 | [6] -0.085 | [3] -0.122

ARFGEF1 (UniProt Q9Y6D6)
inactive: IRAK-1-4 Inhibitor I 0.016 | ibrutinib -0.061 | [1] 0.036 | ralimetinib 0.132 | [4] -0.018 | [2] 0.051 | [5] -0.019 | pinometostat 0.001 | [3] 0.07

AP1S2 (UniProt P56377)
inactive: IRAK-1-4 Inhibitor I 0 | ibrutinib -0.071 | [1] -0.013 | [4] -0.174 | pinometostat -0.026 | [6] 0.005

ANKS1A (UniProt Q92625)
inactive: IRAK-1-4 Inhibitor I -0.147 | ibrutinib -0.149 | [1] 0.112 | ralimetinib 0.288 | [4] -0.074 | [5] 0.153 | pinometostat 0.298 | [3] 0.239

APOB (UniProt P04114)
inactive: IRAK-1-4 Inhibitor I 0.042 | ibrutinib -0.012 | [1] 0.045 | ralimetinib -0.239 | [4] -0.295 | [2] -0.438 | [5] 0.403 | pinometostat -0.171 | [3] 0.021

ARHGAP6 (UniProt O43182)
inactive: IRAK-1-4 Inhibitor I -0.121 | [1] -0.039 | ralimetinib 0.145 | [4] 0.058 | [5] 0.188 | pinometostat 0.219 | [6] -0.105 | [3] -0.098

AP4S1 (UniProt Q9Y587)
inactive: IRAK-1-4 Inhibitor I -0.061 | ibrutinib -0.12 | [1] 0.008 | [4] -0.079 | [2] 0 | pinometostat -0.145

ARHGEF10 (UniProt O15013)
inactive: ibrutinib -0.107

The list goes on.

ANKRD36 (UniProt A6QL64)
inactive: [4] -0.06 | [3] 0.147

APBA2 (UniProt Q99767)
inactive: [4] -0.213

ANKRD26 (UniProt Q9UPS8)
inactive: [1] 0.071 | ralimetinib -0.076 | [5] 0.065 | [6] -0.015 | [3] 0.112

APOC3 (UniProt P02656)
inactive: ibrutinib -0.091 | [1] -0.045 | ralimetinib 0.032 | [4] 0.08 | [5] 0.135 | [6] 0.32 | [3] 0.184

ANKLE2 (UniProt Q86XL3)
inactive: IRAK-1-4 Inhibitor I 0.038 | pinometostat 0.127

ANKRD46 (UniProt Q86W74)
inactive: ibrutinib -0.085 | [1] 0.037 | ralimetinib 0.041 | [4] 0.002 | [2] 0.123 | [5] 0.12 | [6] -0.314 | [3] 0.093

API5 isoform 1 (UniProt Q9BZZ5)
inactive: [1] 0.038 | [4] -0.091 | [6] -0.055 | [3] 0.018

AP2S1 (UniProt M0QZ21)
inactive: [3] 0.139

APOA4 (UniProt P06727)
inactive: ibrutinib -0.048 | [1] -0.06 | ralimetinib -0.028 | [4] 0.089 | [5] 0.022 | [6] -0.056 | [3] -0.076

ARID1B isoform 3 (UniProt Q8NFD5)
inactive: ibrutinib 0.082 | ralimetinib 0.056 | [5] 0.042

ARHGEF18 (UniProt Q6ZSZ5)
inactive: ibrutinib -0.104 | [1] -0.047 | ralimetinib 0.27 | [4] 0.002 | [2] -0.285 | [5] 0.207 | [6] 0.249 | [3] 0.041

ARHGAP21 (UniProt Q5T5U3)
inactive: ibrutinib 0.117 | ralimetinib 0.162 | [4] 0.148 | [5] 0.129 | [6] 0.089

APP (UniProt P05067)
inactive: ralimetinib -0.042 | [2] 0.094 | [5] 0.174 | [6] -0.105 | [3] -0.128

ARID4B (UniProt Q4LE39)
inactive: [3] -0.096

APOBEC3B (UniProt Q9UH17)
inactive: IRAK-1-4 Inhibitor I -0.068 | ralimetinib 0.069 | [5] 0.124 | pinometostat 0.186 | [6] 0.088

ANKRD16 (UniProt Q6P6B7)
inactive: ibrutinib -0.194 | [4] -0.133 | [2] 0.069

ANKRD13C (UniProt Q8N6S4)
inactive: [1] -0.144 | [4] 0.119 | [3] 0.173

ARHGAP4 isoform 2 (UniProt P98171)
inactive: ibrutinib 0.026 | [1] -0.051 | ralimetinib 0.161 | [2] -0.067 | [5] -0.005 | [3] 0.062

AP1G2 (UniProt O75843)
inactive: ralimetinib -0.006 | [2] -0.303 | [5] -0.23

ARHGAP22 isoform 2 (UniProt Q7Z5H3)
inactive: ralimetinib -0.003 | [5] 0.056 | [3] 0.17
